The results in this text go back to publication PMC4228055.

Chains of the proteins cited; added tags and fusions are not shown.
UniProt P20263: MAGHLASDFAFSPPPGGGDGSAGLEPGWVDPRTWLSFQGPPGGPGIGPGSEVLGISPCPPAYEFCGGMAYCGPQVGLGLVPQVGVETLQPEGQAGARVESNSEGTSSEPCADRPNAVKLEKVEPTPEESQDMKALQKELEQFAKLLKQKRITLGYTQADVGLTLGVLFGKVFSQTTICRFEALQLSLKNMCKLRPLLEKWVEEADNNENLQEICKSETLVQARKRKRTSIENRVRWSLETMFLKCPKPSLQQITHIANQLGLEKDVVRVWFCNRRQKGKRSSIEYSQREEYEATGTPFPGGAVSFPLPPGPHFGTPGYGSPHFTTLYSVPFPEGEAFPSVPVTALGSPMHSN

The target in assay [1] is FLAG-tagged Oct4 (mouse), P20263. Description: co-IP; postnuclear membrane fractions of FLAG-tagged POUV-protein-rescued ZHBTc4 ESC lines grown in self-renewing conditions; precipitated with either E-cadherin or FLAG tag antibody, IgG control; immunoblot; conditions designed to detect interactions between membrane proteins. The note with it: remark: other sources report otherwise. On the technique in general: In western blotting, separated proteins are transferred to a membrane and probed.

Another assay deals with FLAG-tagged Oct4 (mouse) (UniProt P20263). The assay is described as above.

Results are given in words; binding and its absence hold for the method and conditions named. Binding seen in cells or lysates may run through a third protein. Some results given as binding are weak or reduced against the parent protein; the word gives no strength.

B1: β-catenin, Q02248 1-781 (protein)
chain: MATQADLMELDMAMEPDRKAAVSHWQQQSYLDSGIHSGATTTAPSLSGKGNPEEEDVDTSQVLYEWEQGFSQSFTQEQVADIDGQYAMTRAQRVRAAMFPETLDEGMQIPSTQFDAAHPTNVQRLAEPSQMLKHAVVNLINYQDDAELATRAIPELTKLLNDEDQVVVNKAAVMVHQLSKKEASRHAIMRSPQMVSAIVRTMQNTNDVETARCTAGTLHNLSHHREGLLAIFKSGGIPALVKMLGSPVDSVLFYAITTLHNLLLHQEGAKMAVRLAGGLQKMVALLNKTNVKFLAITTDCLQILAYGNQESKLIILASGGPQALVNIMRTYTYEKLLWTTSRVLKVLSVCSSNKPAIVEAGGMQALGLHLTDPSQRLVQNCLWTLRNLSDAATKQEGMEGLLGTLVQLLGSDDINVVTCAAGILSNLTCNNYKNKMMVCQVGGIEALVRTVLRAGDREDITEPAICALRHLTSRHQEAEMAQNAVRLHYGLPVVVKLLHPPSHWPLIKATVGLIRNLALCPANHAPLREQGAIPRLVQLLVRAHQDTQRRTSMGGTQQQFVEGVRMEEIVEGCTGALHILARDVHNRIVIRGLNTIPLFVQLLYSPIENIQRVAAGVLCELAQDKEAAEAIEAEGATAPLTELLHSRNEGVATYAAAVLFRMSEDKPQDYKKRLSVELTSSLFRTEPMAWNETADLGLDIGAQGEALGYRQDDPSYRSFHSGGYGQDALGMDPMMEHEMGGHHPGADYPVDGLPDLGHAQDLMDGLPPGDSNQLAWFDTDL
With B1, in assay [1], the binding entry is reported as “binds”.

B2: p120-catenin (protein, UniProt P30999 1-938)
chain: MDDSEVESTASILASVKEQEAQFEKLTRALEEERRHVSAQLERVRVSPQDANSLMANGTLTRRHQNGRFVGDADLERQKFSDLKLNGPQDHNHLLYSTIPRMQEPGQIVETYTEEDPEGAMSVVSVETTDDGTTRRTETTVKKVVKTMTTRTVQPVPMGPDGLPVDASAVSNNYIQTLGRDFRKNGNGGPGPYVGQAGTATLPRNFHYPPDGYGRHYEDGYPGGSDNYGSLSRVTRIEERYRPSMEGYRAPSRQDVYGPQPQVRVGGSSVDLHRFHPEPYGLEDDQRSMGYDDLDYGMMSDYGTARRTGTPSDPRRRLRSYEDMIGEEVPPDQYYWAPLAQHERGSLASLDSLRKGMPPPSNWRQPELPEVIAMLGFRLDAVKSNAAAYLQHLCYRNDKVKTDVRKLKGIPILVGLLDHPKKEVHLGACGALKNISFGRDQDNKIAIKNCDGVPALVRLLRKARDMDLTEVITGTLWNLSSHDSIKMEIVDHALHALTDEVIIPHSGWEREPNEDCKPRHIEWESVLTNTAGCLRNVSSERSEARRKLRECDGLVDALIFIVQAEIGQKDSDSKLVENCVCLLRNLSYQVHREIPQAERYQEALPTVANSTGPHAASCFGAKKGKDEWFSRGKKPTEDPANDTVDFPKRTSPARGYELLFQPEVVRIYISLLKESKTPAILEASAGAIQNLCAGRWTYGRYIRSALRQEKALSAIAELLTSEHERVVKAASGALRNLAVDARNKELIGKHAIPNLVKNLPGGQQNSSWNFSEDTVVSILNTINEVIAENLEAAKKLRETQGIEKLVLINKSGNRSEKEVRAAALVLQTIWGYKELRKPLEKEGWKKSDFQVNLNNASRSQSSHSYDDSTLPLIDRNQKSDKKPDREEIPMSNMGSNTKSLDNNYSTLNERGDHNRTLDRSGDLGDMEPLKGAPLMQKI
Consider B2, for which the binding entry in the assay with FLAG-tagged Oct4 (mouse) was “binds”.
